Binding data for 2 molecules are collected here from paper doi:10.1101/2023.02.11.528093.

Chains of the proteins cited; added tags and fusions are not shown.
UniProt P22366: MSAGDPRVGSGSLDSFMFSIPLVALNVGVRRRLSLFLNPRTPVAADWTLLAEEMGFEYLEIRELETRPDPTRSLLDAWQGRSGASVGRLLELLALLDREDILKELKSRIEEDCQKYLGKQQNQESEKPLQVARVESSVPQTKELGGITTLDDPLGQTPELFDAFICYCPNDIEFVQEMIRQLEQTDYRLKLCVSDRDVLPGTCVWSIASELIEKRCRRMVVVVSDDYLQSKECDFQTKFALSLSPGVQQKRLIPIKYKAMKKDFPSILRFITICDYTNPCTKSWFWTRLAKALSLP

Results are given in words; binding and its absence hold for the method and conditions named. In cells and extracts the contact can be indirect. Some results given as binding are weak or reduced against the parent protein; the word gives no strength.

The target of the experiment is T1, IL-33 receptor (ST2, suppression of tumorigenicity 2) (mouse (endogenous in mTh2 cells)) (UniProt P14719).
T1 sequence: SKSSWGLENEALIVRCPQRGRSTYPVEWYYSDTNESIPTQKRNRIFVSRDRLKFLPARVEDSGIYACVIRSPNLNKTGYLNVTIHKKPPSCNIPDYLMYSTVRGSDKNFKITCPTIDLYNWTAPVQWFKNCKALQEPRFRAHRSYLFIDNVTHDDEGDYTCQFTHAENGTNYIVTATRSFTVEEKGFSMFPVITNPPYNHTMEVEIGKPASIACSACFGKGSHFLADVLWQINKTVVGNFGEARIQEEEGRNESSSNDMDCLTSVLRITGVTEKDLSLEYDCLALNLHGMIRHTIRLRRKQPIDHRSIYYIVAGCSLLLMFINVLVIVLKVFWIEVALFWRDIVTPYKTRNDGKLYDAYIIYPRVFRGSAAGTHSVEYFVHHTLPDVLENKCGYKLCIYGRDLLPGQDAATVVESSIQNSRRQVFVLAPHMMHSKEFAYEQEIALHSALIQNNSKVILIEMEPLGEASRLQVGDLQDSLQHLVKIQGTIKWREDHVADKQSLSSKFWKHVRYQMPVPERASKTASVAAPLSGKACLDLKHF
In words: co-IP.

As for “myeloid differentiation primary response protein 8 (MYD88) (from UniProt P22366 1-296)”, the binding entry is reported as “binds”.

B1: Tumor necrosis factor receptor (TNF)-associated factor 4 (TRAF4) (protein, UniProt Q61382 1-470)
chain: MPGFDYKFLEKPKRRLLCPLCGKPMREPVQVSTCGHRFCDTCLQEFLSEGVFKCPEDQLPLDYAKIYPDPELEVQVLGLAIRCIHSEEGCRWSGPLRHLQGHLNTCSFNVVPCPNRCPAKLSRRDLPAHLQHDCPKRRLKCEFCGCDFSGEAYESHEGVCPQESVYCENKCGARMMRRLLAQHATSECPKRTQPCAYCTKEFVYDTIQSHQYQCPRLPVPCPNQCGVGTVAREDLPTHLKDSCSTAFVLCPFKESGCKHRCPKLAMGRHVEESVKPHLAMMCALVSRQRQELQELRRELEELSIGSDGVLIWKIGSYGRRLQEAKAKPNLECFSPAFYTHKYGYKLQVSAFLNGNGSGEGTHLSIYIRVLPGAFDNLLEWPFARRVTFSLLDQSDPGLAKPQHVTETFHPDPNWKNFQKPGTWRGSLDESSLGFGYPKFISHQDIRKRNYVRDDAVFIRASVELPRKILS
Take B1: the binding entry was “binds”.
